# This is one part of the list.
# Chains of the proteins cited; added tags and fusions are not shown.
# UniProt Q0JBA9, entry or part of it: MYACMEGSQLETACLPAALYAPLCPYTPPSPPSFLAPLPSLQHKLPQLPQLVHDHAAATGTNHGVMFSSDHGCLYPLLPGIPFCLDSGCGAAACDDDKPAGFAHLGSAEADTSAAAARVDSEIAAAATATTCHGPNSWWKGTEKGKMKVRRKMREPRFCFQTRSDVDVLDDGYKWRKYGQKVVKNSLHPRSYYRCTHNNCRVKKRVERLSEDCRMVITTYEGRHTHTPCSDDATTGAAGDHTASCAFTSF
# Molecular target: OsWRKY34 (Oryza sativa, UniProt Q0JBA9 1-250)
# Test: protein-binding microarray (RPBM); PBS, 2% BSA, 51.3 ng/ul salmon testes DNA, 50 uM zinc acetate, 200 nM TF, 25 C, 1 h; high values mean tight binding
# Conditions: protein: recombinant; tags: N-terminal polyhistidine and DsRed monomer fusion (pET32a); label: CyDye5-dUTP incorporated in the synthesized complementary strand; 3' TTTTT single-stranded linker to array surface; dsDNA, one strand shown
# How it was run: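 Transcription factors were made in E. coli BL21-CodonPlus as N-terminal fusions to a polyhistidine tag and DsRed, then purified on Ni–NTA. After primer extension with Cy5-dUTP and blocking with 2% BSA, a custom Agilent array was exposed for 1 h at 25 °C to 200 nM protein in PBS, 2% BSA, salmon testes DNA and 50 µM zinc acetate. Washed arrays were scanned on an Axon 4000B, and the binding signal is per-feature fluorescence intensity in arbitrary units.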
row,Sequence,binding signal
1,CGCTAGTTCTCTCTTGGTGTTCCTGGATGATGCCGTCGAGCGGAGTCACCTAGTGCAG,8670 fluorescence intensity (a.u.)
2,CCTTCCGTTCGACGCGACACGCGAGTCATTGCTGCCACCACGGAGTCACCTAGTGCAG,8110 fluorescence intensity (a.u.)
3,GGACCACCCCAACTCCTCTTATTAAGTACTCTCTTCGTTTCGGAGTCACCTAGTGCAG,8960 fluorescence intensity (a.u.)
4,CATGCGGGGCGCGGGCGGCGGTGCAGGGCGGGGTGCGGCCCGGAGTCACCTAGTGCAG,8730 fluorescence intensity (a.u.)
5,GAGATGATCGCGCGCCACCACTCGCCGCCGCCGCTGGAATCGGAGTCACCTAGTGCAG,8830 fluorescence intensity (a.u.)
6,CTGATCGAGCACAACATGTCCAGCACCACCAGCTCTCGCCCGGAGTCACCTAGTGCAG,9210 fluorescence intensity (a.u.)
7,ATATTTTTTGTTGGACCAACACATTATCTTATTGGGCTGACGGAGTCACCTAGTGCAG,8620 fluorescence intensity (a.u.)
8,CTTCTCTTACCTCGGTGGGTGCTTAATGTGCTGGTTTGAACGGAGTCACCTAGTGCAG,8740 fluorescence intensity (a.u.)
9,CGAAATAAATACTAGGTCGGTCCAACCCCGAGGTTTCTTCCGGAGTCACCTAGTGCAG,8950 fluorescence intensity (a.u.)
10,GTACCATTACACGGGTCTCTTTACATGTTAAATAAATTTTCGGAGTCACCTAGTGCAG,9650 fluorescence intensity (a.u.)
11,CTACAAAATAAACGTGTTTATCCAACATCCTCGTCTGTAACGGAGTCACCTAGTGCAG,8050 fluorescence intensity (a.u.)
12,CACAGCGATTTCTTCTCTCTCTTTCGCCGTCGCATTCGCCCGGAGTCACCTAGTGCAG,12800 fluorescence intensity (a.u.)
13,ATTCCTTCTTGTTATTTGTGGTTTTGAGATGTTTTTGCTTCGGAGTCACCTAGTGCAG,8840 fluorescence intensity (a.u.)
14,TGCCACCGCGCTGCCCGCCGTCTACCGCCACCGCCCCGCGCGGAGTCACCTAGTGCAG,8110 fluorescence intensity (a.u.)
15,TTAAGTTTTCAATGATTTTTTTCTACTTGACTTTTTTTTTCGGAGTCACCTAGTGCAG,8540 fluorescence intensity (a.u.)
16,CTTTGGTCAAAGTCAAATTGTTTTAAGTTTGACCAAGTTTCGGAGTCACCTAGTGCAG,19600 fluorescence intensity (a.u.)
17,GCCCTTGCTTTACGATTTAATTGTGATTTTACCCTTGTTTCGGAGTCACCTAGTGCAG,9250 fluorescence intensity (a.u.)
18,AAGCTTCTCGCCGTGCTCGTCCACATTCCGCCAGCTGGCCCGGAGTCACCTAGTGCAG,8240 fluorescence intensity (a.u.)
19,GGTTTTGCTATTTCACTTGCGACAGTTTTTCGGGTTCCTACGGAGTCACCTAGTGCAG,8310 fluorescence intensity (a.u.)
20,ACGTCTTCCTGTCCACGTCGTTGAACTTAACCACGAAGTACGGAGTCACCTAGTGCAG,11800 fluorescence intensity (a.u.)
21,GAACGGTTTACACATAGCCATGCACCGATTTTTCTCGATACGGAGTCACCTAGTGCAG,8780 fluorescence intensity (a.u.)

# Single entries from the entries so far:
# Under binding signal, ATATTTTTTGTTGGACCAACACATTATCTTATTGGGCTGACGGAGTCACCTAGTGCAG shows 8620 fluorescence intensity (a.u.)
# Under binding signal, TTAAGTTTTCAATGATTTTTTTCTACTTGACTTTTTTTTTCGGAGTCACCTAGTGCAG shows 8540 fluorescence intensity (a.u.)
# Under binding signal, CACAGCGATTTCTTCTCTCTCTTTCGCCGTCGCATTCGCCCGGAGTCACCTAGTGCAG shows 12800 fluorescence intensity (a.u.)
# Under binding signal, ATTCCTTCTTGTTATTTGTGGTTTTGAGATGTTTTTGCTTCGGAGTCACCTAGTGCAG shows 8840 fluorescence intensity (a.u.)

# The results go on:

row,Sequence,binding signal
1,GAATTCTTGTGTTCCAAGCATTTCGATTTGCTCCTCTCTTCGGAGTCACCTAGTGCAG,9020 fluorescence intensity (a.u.)
2,CAACCTGATCCTATCTCACCATCTCGTGATAAAAGCGCCTCGGAGTCACCTAGTGCAG,9540 fluorescence intensity (a.u.)
3,CTGTTCTGGCGCTCCTCTCTACGGGTGATCGCTAACTTGCCGGAGTCACCTAGTGCAG,8390 fluorescence intensity (a.u.)
4,GTGATACTAATAGCAGTTTCTTTGCTTGTTTGTTTGTTTCCGGAGTCACCTAGTGCAG,8130 fluorescence intensity (a.u.)
5,GCTCGGTGTCCTTACAAATTGTTTGCTTTGCACTTATTATCGGAGTCACCTAGTGCAG,8940 fluorescence intensity (a.u.)
6,GATGACGCCGTTGACTTTTTCTCACATGTTTGACCAATCGCGGAGTCACCTAGTGCAG,36900 fluorescence intensity (a.u.)
7,TCAAAATATTTGACACCGTTGACTTTTTAGGACGTGTTTACGGAGTCACCTAGTGCAG,24900 fluorescence intensity (a.u.)
8,TTTTGACTTTACCATTCAATTGCCTTAAACCAACGGGCCTCGGAGTCACCTAGTGCAG,8270 fluorescence intensity (a.u.)
9,TGTCCATATTCTAATTAATTGGTGAACGGTACCATTTCCGCGGAGTCACCTAGTGCAG,8200 fluorescence intensity (a.u.)
10,GGTAAATTTTATGTAAATTAACCCGGGTATTATGGTTCTTCGGAGTCACCTAGTGCAG,8330 fluorescence intensity (a.u.)
11,TCGTCTCCTCGCCCGCCGCTTTGTGCCGAATCCCCATCCTCGGAGTCACCTAGTGCAG,9060 fluorescence intensity (a.u.)
12,TTGGGTTGGGTTGGGTGGTCCATTCTGTACGGTGCGCCGGCGGAGTCACCTAGTGCAG,19600 fluorescence intensity (a.u.)
13,CTAGTTGCATCAGTATAGCACATTCCTCTCTGATCGTTTGCGGAGTCACCTAGTGCAG,9570 fluorescence intensity (a.u.)
14,TTGCCTATTCACCCAAATTATTTGCTCATTCTCTGTAACCCGGAGTCACCTAGTGCAG,11500 fluorescence intensity (a.u.)
15,AGCTCTTCACTTTCCTTGTCTGCTCCAGGAGTAAGTAGCCCGGAGTCACCTAGTGCAG,9470 fluorescence intensity (a.u.)
16,TCGCCCAACTGCTCGCATCTTTCTCTCTGCCCGTGCCAATCGGAGTCACCTAGTGCAG,10900 fluorescence intensity (a.u.)
17,AAATTAGACACAGTAATCTATTTTTTTTCTCTTTATTTACCGGAGTCACCTAGTGCAG,9100 fluorescence intensity (a.u.)
18,TTCAAATCTCATCCGAATTTTTTGTTTTTTATTTTTTTTTCGGAGTCACCTAGTGCAG,8280 fluorescence intensity (a.u.)
19,CCCCTGTCAATACAACCAGCTGCACGCCCATTCGTCTCAACGGAGTCACCTAGTGCAG,10900 fluorescence intensity (a.u.)
20,GTCACATTTTCTACATCTCATCCTTCCATTCCACTCCCTTCGGAGTCACCTAGTGCAG,11200 fluorescence intensity (a.u.)
21,TTTTCTCCGCGTGGCCTTTTGTGTTTCTTTTTTTCTGTAACGGAGTCACCTAGTGCAG,15300 fluorescence intensity (a.u.)

# From article PMC7819943, “Rice protein-binding microarrays: a tool to detect cis-acting elements near promoter regions in rice”
